Source: paper PMC10063565
Results are given in words; binding and its absence hold for the method and conditions named. Binding seen in cells or lysates may run through a third protein. Binding can be weak; no strength is given.

Biological target: T1, Nicotinamide Nucleotide Transhydrogenase (NNT) (mouse (endogenous in kidney)) (UniProt Q61941)
T1 sequence: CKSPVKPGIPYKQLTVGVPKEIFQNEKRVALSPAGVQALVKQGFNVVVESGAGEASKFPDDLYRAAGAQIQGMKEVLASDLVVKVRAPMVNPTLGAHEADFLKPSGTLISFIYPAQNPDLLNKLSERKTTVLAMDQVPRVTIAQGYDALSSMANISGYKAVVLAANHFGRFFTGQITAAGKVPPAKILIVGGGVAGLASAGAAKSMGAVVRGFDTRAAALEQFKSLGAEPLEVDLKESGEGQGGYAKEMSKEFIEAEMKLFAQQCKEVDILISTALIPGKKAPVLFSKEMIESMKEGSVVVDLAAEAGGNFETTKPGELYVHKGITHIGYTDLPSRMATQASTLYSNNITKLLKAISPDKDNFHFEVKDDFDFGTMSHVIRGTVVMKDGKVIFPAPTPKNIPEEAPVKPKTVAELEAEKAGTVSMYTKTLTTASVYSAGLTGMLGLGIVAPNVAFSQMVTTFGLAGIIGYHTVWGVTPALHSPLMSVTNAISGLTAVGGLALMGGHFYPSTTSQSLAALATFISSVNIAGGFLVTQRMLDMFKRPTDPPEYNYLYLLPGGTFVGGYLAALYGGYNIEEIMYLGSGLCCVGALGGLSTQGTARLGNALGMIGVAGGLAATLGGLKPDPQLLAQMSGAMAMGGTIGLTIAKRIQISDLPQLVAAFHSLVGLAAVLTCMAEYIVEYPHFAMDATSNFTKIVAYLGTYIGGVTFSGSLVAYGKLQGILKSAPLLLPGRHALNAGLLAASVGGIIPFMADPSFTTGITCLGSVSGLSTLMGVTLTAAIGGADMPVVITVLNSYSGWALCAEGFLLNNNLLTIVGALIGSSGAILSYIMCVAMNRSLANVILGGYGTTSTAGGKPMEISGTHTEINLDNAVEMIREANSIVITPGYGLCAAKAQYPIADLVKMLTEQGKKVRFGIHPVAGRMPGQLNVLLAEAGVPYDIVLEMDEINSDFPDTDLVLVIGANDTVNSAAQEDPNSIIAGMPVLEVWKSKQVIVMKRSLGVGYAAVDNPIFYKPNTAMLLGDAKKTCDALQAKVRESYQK
Experiment: co-IP; kidney lysates of Pkd1F/H-BAC vs WT mice, agarose-conjugated anti-NNT (B3), blotted with HRP-conjugated anti-HA

CTF derived from full-length 3FLAG-PC1-3HA (domain or fragment)
binding: binds
